Test results as given in article PMC4182748.
Where a chain is given by its changes, count along the chain named. No constants are given. Whether binding was seen depends on the method and setting. For some assays here: Binding can be weak; no strength is given. For some assays here: Where a sequence is shown, tags or fusion partners need not be part of it. One block for each molecule: values may come before it.

Assays:
[1] = molecular target: T1, Mxβ19–537 (Myxococcus xanthus) (UniProt Q1D7U3); experiment: two-hybrid; bacterial two-hybrid (BACTH) in E. coli BTH101 (cya-); T25 (pKT25) and T18 (pUT18 or pUT18C) fusions; reporter lacZ read on X-Gal plates and as β-galactosidase activity of liquid cultures; one empty vector as negative control
T1 sequence: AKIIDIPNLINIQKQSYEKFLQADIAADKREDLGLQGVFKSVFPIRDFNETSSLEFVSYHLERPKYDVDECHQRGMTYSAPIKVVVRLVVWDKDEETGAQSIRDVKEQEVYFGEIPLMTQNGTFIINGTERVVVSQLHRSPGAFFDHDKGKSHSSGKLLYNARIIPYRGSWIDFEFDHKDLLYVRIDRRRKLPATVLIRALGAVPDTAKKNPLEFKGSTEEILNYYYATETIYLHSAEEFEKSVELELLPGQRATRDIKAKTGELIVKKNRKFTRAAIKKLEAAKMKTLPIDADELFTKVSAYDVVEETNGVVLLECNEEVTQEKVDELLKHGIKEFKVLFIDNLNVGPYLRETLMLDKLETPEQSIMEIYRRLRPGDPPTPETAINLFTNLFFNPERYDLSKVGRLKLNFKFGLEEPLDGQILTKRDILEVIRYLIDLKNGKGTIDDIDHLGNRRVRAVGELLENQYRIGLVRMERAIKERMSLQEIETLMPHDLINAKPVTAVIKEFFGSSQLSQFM

[2] = molecular target: T2, Bbβ31–538 (Bdellovibrio bacteriovorus) (UniProt Q6MJ09); experiment: as above
T2 sequence: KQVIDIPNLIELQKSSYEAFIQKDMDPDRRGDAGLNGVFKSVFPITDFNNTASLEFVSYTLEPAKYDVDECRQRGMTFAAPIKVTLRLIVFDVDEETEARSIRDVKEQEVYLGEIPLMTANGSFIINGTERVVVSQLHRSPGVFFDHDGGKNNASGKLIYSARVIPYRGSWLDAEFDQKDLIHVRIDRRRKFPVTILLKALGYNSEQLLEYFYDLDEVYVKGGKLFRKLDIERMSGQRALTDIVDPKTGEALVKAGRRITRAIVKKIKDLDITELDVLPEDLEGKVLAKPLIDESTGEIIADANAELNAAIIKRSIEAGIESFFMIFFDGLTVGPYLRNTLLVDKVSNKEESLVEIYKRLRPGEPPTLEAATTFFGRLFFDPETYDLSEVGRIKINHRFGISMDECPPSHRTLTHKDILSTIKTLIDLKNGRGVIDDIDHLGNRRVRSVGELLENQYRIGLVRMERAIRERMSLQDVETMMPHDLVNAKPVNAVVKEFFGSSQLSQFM

[3] = molecular target: T3, Mxβ19–148 (BACTH fusion) (Myxococcus xanthus) (UniProt Q1D7U3); experiment: as above
T3 sequence: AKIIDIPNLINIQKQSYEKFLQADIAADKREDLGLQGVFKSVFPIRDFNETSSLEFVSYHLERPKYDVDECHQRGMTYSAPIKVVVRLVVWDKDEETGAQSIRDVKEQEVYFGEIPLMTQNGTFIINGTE

[4] = molecular target: T4, Mxβ19–148 D122A (BACTH fusion) (Myxococcus xanthus) (UniProt Q1D7U3); experiment: as above
T4 sequence: T3 sequence with D104A

[5] = molecular target: T5, Mxβ19–148 K124A (BACTH fusion) (Myxococcus xanthus) (UniProt Q1D7U3); experiment: as above
T5 sequence: T3 sequence with K106A

[6] = molecular target: CdnL (purified) (Myxococcus xanthus); experiment: NMR titration; [1H-15N] or [1H-13C] HSQC at 25°C after each addition of unlabeled Mxβ19–148 (0.4–5.0 equivalents) to 0.10–0.25 mM [15N,13C] CdnL, CdnLNt or CdnLCt; both purified

binding [1]: no binding
binding [2]: binds
Molecule: BbCdnL (Bdellovibrio bacteriovorus)

binding [3]: binds
binding [4]: binds
binding [5]: binds
Molecule: CdnL (BACTH fusion) (Myxococcus xanthus)

binding [3]: binds
Molecule: CdnL F125A (BACTH fusion) (Myxococcus xanthus)

binding [3]: binds
Molecule: CdnL M96A (BACTH fusion) (Myxococcus xanthus)

binding [3]: binds
Molecule: CdnL R90A/R91A/R93A (BACTH fusion) (Myxococcus xanthus)

binding [3]: binds
Molecule: CdnL R128A/K129A (BACTH fusion) (Myxococcus xanthus)

binding [3]: binds
Molecule: CdnL W88A (BACTH fusion) (Myxococcus xanthus)

binding [1]: no binding
Molecule: CgCdnL (Corynebacterium glutamicum)

binding [1]: no binding
Molecule: ScCdnL (Streptomyces coelicolor)

binding [1]: no binding
Molecule: TtCdnL (T. thermophilus)

binding [6]: binds
B1: Mxβ19–148 (unlabeled protein) (domain or fragment, UniProt Q1D7U3 19-148)
chain: T3 sequence
